No constants are given. Whether binding was seen depends on the method and setting. Binding seen in cells or lysates may run through a third protein. Some entries that bind do so weakly or less than the wild type. Tags and fused reporters may be left off the sequences shown.
Molecular target: T1, GST-PEG10 fusion protein (human) (UniProt Q86TG7)
T1 sequence (looked up): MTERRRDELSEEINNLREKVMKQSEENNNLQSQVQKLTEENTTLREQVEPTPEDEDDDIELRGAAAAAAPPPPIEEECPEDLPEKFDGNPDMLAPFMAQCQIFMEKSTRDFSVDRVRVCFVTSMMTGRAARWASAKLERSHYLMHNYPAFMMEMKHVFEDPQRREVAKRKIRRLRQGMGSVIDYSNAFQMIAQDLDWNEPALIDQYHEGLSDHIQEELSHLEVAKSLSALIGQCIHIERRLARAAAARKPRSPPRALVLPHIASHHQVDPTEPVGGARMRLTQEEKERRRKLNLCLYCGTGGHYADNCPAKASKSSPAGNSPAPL
Experiment: in vitro pull-down: GST-PEG10 on Glutathione Sepharose 4B beads, lysate of HEK293-SIAH2 cells, immunoblot with anti-Flag and anti-PEG10

B1: Flag-tagged SIAH-2 protein expressed in HEK293 cells (protein, human, UniProt O43255 1-324, looked up, not shown: small tags and cut ends)
chain: MSRPSSTGPSANKPCSKQPPPQPQHTPSPAAPPAAATISAAGPGSSAVPAAAAVISGPGGGGGAGPVSPQHHELTSLFECPVCFDYVLPPILQCQAGHLVCNQCRQKLSCCPTCRGALTPSIRNLAMEKVASAVLFPCKYATTGCSLTLHHTEKPEHEDICEYRPYSCPCPGASCKWQGSLEAVMSHLMHAHKSITTLQGEDIVFLATDINLPGAVDWVMMQSCFGHHFMLVLEKQEKYEGHQQFFAIVLLIGTRKQAENFAYRLELNGNRRRLTWEATPRSIHDGVAAAIMNSDCLVFDTAIAHLFADNGNLGINVTISTCCP
With B1 the binding was “binds”.

Reference: patent US20070155689A1
